# Assay results reported in article PMC3591265.
# Results are given in words; binding and its absence hold for the method and conditions named. Some binding calls cover weakened binding; strength is not graded here. Where a sequence is shown, tags or fusion partners need not be part of it.
# T1: OsSET1 (E. coli two-hybrid fusion) (Oryza sativa) (UniProt Q10MI4)
# T1 sequence: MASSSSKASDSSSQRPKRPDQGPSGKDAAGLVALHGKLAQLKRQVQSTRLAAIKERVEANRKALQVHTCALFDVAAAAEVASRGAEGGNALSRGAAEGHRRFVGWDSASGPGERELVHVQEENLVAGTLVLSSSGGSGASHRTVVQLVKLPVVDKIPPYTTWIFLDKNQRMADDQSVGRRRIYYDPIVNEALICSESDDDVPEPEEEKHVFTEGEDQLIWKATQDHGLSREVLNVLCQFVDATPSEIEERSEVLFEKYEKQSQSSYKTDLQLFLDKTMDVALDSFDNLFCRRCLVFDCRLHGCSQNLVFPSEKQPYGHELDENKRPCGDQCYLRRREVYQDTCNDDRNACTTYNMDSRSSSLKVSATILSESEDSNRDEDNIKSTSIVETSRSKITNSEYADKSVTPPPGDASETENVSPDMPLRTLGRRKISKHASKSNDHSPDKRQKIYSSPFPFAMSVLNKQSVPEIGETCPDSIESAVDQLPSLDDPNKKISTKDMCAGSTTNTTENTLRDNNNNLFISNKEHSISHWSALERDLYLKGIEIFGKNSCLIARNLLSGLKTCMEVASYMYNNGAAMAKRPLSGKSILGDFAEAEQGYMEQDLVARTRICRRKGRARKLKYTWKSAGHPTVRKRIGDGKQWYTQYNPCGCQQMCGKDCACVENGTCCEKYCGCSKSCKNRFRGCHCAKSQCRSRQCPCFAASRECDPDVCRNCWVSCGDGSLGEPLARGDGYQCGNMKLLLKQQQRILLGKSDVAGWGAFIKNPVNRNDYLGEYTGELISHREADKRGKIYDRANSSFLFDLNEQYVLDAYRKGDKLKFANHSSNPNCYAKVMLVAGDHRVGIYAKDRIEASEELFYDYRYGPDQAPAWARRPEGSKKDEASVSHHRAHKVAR
# Biological target: T1, OsSET1 (E. coli two-hybrid fusion) (Oryza sativa)
# Experiment: two-hybrid; E. coli two-hybrid (BacterioMatch II, Agilent); bait pBT and target pTRG co-transformed; selective medium with 3-AT, dual selective medium with 3-AT and streptomycin
row,binding,Binder
1,binds,"OsFIE2 (E. coli two-hybrid fusion) (protein, UniProt Q6ZJX0 1-376) MAKLGPGQGLGCEAAVGLLAPSRKREYKACNKLTEGKRPLYAIGFNFLDFHYYEVFATVGGNRVTTYSCLKDGNFAILQAYIDEDKDESFYTLSWACDLDGTPLLVAAGSNGIIRVINCATEKLLKTFVGHGDSINEIRTQALKPSLIISASKDESVRLWNVHTGICILIFAGAGGHRNEVLSVDFHPSDIYRIASCGMDNTVKIWSMKEFWPYVEQSFTWTDLPSKFPTKYVQFPVLVAVVHSNYVDCTRWLGDFILSKSVDNEIVLWEPKTKEQSPGEGSIDILQKYPVPECDIWFIKFSCDFHFNQLAIGNREGKVFVWEVQSSPPVLTARLTNPQCKSAIRQTAVSFDGSTILACSEDGSIWRWDEVDHPKA"
2,no binding,"OsCLF (E. coli two-hybrid fusion) (protein, UniProt Q5VN06 1-896) MAGDSRNEPMFCEEGSSESGYVLCVIDSLKKKITSDRFVYIQKRVEENSIKLSPITLHSHNLSKNRQTSTSNSTDLVSNLLTKRKEDALCAVNSRESSPDESEGANCQDECSSTVIVGGNLSARNSVRPIRLPEVATLPPYTTWIFLDRNQRMQEDQSVLGRRRIYYDTNCGEALICSDSEDEAVEDEEEKKEFKDSEDCIIRMTIQECGMSDAVLETLARDIERAPDDIKARYEILQGEKPEGSSKKVSELNVKMEDVYGDKDLDAALDSFDNLFCRRCLVFDCKLHGCSQDLVFPTEKQAPLCSSDEGTPCGIHCYKLVSKPDAIMEIDSHLLVDVEEPTSDNLKDQIGSNKKKLGSSGQKTKSQQSESSSTARVSSESSESEVQLLSNKSPQHSPGLSKNKLGAKGGIKKSTNRRIAERILMSVKKGQQEMSPDSNSIVNGCHWPRDMKLRSDTRSGIKDSVVSSQCNSPSTRSFRKKGTLQMENNSSFVDAQSDSMEDTNNEHSATDGCDSSRKEECVDESICRQEAHGRSWKVIEQGLLLKGLEIFGKNSCLIARNLLGGMKTCTDVFQYMNYIENSSASGALSGVDSLVKGYMKGNELRTRSRFVRRRGRVRRLKYTWKTAGYHFIRKRITERKDQPCRQYTPCGCQSACGKQCPCLTNGTCCEKYCGCPKMCKNRFRGCHCAKSQCRSRQCPCFAADRECDPDVCRNCWVGCGDGTLGVPNQRGDNYECRNMKLLLKQQQRVLLGRSDVSGWGAFLKNSVGKHEYLGEYTGELISHKEADKRGKIYDRENSSFLFNLNNEYVLDAYRMGDKLKFANHSPDPNCYAKVIMVAGDHRVGIFAKERISAGEELFYDYRYEPDRAPAWARKPEGPGAKDDAQPSTGRAKKLAH"
